At least one structure is not confirmed: it was looked up by name or label, or the drawing left a doubt.
Target: ATM (Homo sapiens, UniProt Q13315)
Format: biochemical

Amino acid sequences for entries named in this document (tags omitted). A change or cut given only in a name is not applied to a line headed by its entry.
UniProt Q13315: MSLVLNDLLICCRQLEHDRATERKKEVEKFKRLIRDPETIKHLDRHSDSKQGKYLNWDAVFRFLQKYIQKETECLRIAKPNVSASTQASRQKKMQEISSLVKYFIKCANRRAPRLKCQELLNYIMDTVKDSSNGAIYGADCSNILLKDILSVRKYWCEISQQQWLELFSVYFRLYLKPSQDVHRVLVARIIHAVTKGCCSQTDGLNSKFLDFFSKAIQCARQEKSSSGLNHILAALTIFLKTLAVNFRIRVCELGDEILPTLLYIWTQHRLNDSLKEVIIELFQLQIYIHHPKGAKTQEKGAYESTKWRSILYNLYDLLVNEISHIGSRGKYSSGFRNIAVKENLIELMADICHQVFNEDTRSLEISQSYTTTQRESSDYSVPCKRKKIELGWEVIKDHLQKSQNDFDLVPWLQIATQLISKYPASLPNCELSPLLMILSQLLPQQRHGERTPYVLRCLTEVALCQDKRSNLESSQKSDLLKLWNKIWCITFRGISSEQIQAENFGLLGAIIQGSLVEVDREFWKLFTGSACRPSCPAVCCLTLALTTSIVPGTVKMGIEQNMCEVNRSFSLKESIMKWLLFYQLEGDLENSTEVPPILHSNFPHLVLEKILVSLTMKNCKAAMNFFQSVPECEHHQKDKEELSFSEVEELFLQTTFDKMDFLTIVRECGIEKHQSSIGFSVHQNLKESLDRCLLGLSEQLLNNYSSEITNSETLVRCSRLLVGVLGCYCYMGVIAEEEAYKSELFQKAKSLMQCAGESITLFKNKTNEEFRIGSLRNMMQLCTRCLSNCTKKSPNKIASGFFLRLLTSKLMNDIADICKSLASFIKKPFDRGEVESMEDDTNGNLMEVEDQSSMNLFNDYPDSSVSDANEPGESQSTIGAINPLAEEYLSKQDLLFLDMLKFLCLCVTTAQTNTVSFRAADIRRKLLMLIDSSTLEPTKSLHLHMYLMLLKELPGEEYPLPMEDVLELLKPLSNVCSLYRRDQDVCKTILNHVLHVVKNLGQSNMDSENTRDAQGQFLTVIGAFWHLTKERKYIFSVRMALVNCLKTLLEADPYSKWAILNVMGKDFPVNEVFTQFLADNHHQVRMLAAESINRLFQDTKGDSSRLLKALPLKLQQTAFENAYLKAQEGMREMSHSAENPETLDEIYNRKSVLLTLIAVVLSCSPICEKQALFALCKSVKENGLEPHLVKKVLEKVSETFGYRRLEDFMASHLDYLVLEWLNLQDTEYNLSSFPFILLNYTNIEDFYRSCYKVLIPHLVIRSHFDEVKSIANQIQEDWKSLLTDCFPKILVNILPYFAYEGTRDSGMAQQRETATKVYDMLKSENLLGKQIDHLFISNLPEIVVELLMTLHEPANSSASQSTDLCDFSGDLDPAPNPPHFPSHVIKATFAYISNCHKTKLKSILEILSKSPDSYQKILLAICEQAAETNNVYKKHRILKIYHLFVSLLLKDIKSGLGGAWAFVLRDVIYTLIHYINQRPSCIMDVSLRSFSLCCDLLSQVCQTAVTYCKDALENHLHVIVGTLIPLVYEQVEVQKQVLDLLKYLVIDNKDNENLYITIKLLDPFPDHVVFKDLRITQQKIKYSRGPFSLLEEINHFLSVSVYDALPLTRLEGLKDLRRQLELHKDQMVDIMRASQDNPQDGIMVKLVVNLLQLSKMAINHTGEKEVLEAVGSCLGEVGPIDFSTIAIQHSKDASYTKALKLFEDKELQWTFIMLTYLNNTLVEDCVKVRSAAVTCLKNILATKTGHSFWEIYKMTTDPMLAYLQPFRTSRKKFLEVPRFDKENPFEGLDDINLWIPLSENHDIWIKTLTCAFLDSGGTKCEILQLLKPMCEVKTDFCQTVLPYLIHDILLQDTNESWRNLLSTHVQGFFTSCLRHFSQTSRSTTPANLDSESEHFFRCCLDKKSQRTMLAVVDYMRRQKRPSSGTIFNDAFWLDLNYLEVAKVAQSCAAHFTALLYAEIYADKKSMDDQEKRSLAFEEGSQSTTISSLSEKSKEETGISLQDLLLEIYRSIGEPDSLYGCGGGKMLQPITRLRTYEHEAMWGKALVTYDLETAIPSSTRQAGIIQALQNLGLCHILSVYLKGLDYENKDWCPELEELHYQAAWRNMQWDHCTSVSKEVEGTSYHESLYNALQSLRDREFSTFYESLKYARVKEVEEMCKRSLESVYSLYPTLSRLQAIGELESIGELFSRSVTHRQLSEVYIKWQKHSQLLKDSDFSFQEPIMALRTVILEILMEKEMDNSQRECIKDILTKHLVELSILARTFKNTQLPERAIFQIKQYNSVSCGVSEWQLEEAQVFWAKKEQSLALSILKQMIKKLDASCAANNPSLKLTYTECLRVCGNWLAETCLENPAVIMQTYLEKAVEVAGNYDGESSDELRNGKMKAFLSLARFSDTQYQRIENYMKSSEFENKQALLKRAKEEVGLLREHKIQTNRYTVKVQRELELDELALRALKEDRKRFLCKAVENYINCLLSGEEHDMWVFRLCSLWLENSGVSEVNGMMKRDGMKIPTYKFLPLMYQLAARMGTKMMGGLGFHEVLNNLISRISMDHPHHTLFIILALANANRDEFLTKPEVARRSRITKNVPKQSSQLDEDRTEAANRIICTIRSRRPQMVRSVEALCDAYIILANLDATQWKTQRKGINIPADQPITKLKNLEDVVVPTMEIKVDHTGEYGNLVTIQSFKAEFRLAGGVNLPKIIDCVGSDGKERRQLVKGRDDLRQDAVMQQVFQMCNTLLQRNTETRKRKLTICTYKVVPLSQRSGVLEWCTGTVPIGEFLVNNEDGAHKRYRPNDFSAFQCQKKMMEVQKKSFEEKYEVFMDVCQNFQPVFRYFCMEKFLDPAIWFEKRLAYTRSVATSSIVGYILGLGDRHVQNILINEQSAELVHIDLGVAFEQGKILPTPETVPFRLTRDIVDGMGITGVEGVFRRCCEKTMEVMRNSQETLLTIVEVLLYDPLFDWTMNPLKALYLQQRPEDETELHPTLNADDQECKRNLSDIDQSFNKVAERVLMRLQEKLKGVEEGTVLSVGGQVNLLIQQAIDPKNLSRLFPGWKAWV

For `COC[C@H]1OC(=O)c2coc3c2[C@@]1(C)C1=C(C3=O)[C@@H]2CCC(=O)[C@@]2(C)C[C@H]1OC(C)=O` [wortmannin, Wortmannin], the “ATM activity (PHAS-1 phosphorylation)” value was “inhibited” and the “GST-p53 phosphorylation by ATM” value was “inhibited”.

From patent US6994975B2 (priority 2002, dated 2006)
